Screening data, single-dose tests

Measurements from “University of Dundee, Small-Polar-MMV Screening Library” (2021), ChEMBL document CHEMBL3988442.

The filed quantity is “Percent Effect” (%).
How 0% and 100% were set is not recorded. Most values in the screen are low, and negative values occur.
The compounds are a random part of those screened.
Two or more numbers in one place are separate tests of the same structure; such repeats can differ widely.
A dash means the value is not listed here; it may have been measured.

A: 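Whole-parasite assay of Trypanosoma brucei over 72 hours; the read-out is not stated. Concentration: 30 µM. The record gives no direction; compounds that gave an IC50 in retests scored well above the rest, so higher reads as stronger inhibition. Values scatter widely below zero; nearly all retest evidence comes from the higher of the two concentrations used. Of about 64,000 compounds tested this way, about 940 (1.5%) reached 50% or more in at least one test.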
B: 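Cell assay of Leishmania donovani living inside macrophages; the read-out is not stated. Compounds at 30 µM. Direction is inferred from retests: higher values go with stronger inhibition. Of about 69,000 compounds tested this way, about 1,000 (1.5%) reached 50% or more in at least one test.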
C: 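Assay of Toxoplasma gondii numbers, read through their beta-galactosidase reporter with a colour substrate. Concentration: 10 µM. The record gives no direction; the compounds picked for IC50 retests had high values, so higher reads as fewer parasites. Of about 67,000 compounds tested this way, about 260 (0.38%) reached 50% or more in at least one test.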

Compound	A	B	C
Cc1cccc(NC(=O)c2sccc2C)n1	-9.735	-2.734	-3.067
Cc1cc(O)c(OCC(=O)Nc2nc3c(s2)CCCC3)cn1	-33.36	-29.1	-1.311
Cc1cc(NC(=O)C(C)Nc2ccn(Cc3ccccn3)n2)on1 (centres undefined)	2.802	6.599	2.879
CN1CCN(c2ccc(F)cc2NC(=O)NCc2ccon2)CC1	-94.37	9.815	-36.6
CC1CCN(CCNCc2cc(-c3ccccc3)cn3nnnc23)CC1	-14.67	-1.093 & -10.67	-6.348
FC(F)(F)c1cccc(C2(CNCc3cc[nH]c3)CCOCC2)c1	-53.56	8.938	0.5394
COCc1ccccc1CNCc1c(C(C)C)nn(C)c1N(C)C	-	21.29	-20.95
CCN(C(=O)CN1CCCN(c2nc(C)ns2)CC1)C1CC1	-93.73	17.67	25.33
[H][C@@]12C[C@H](C)O[C@]1([H])CCN(C(=O)COCC)C2	-173.1	-9.091	-0.9279
CCN1CC2(CC1=O)CN(C(C)=O)CCN(S(=O)(=O)CC)C2 (centres undefined)	-82.35	8.779	0.9043
O=C(O)C(F)(F)F.[H][C@@]12CN(Cc3cccs3)CCC[C@]1(C(=O)O)CN(c1ncccn1)C2	17.72	28.56	5.788
COc1ccc(C(=O)NS(=O)(=O)c2ccc(C#N)cc2C(F)(F)F)cc1	-12.07	11.99	3.044
Cc1ccc(N2CCC(C(=O)O)(n3ccc(C(C)C)n3)CC2)nn1	-8.054	25.4	8.775
O=C(O)C(F)(F)F.[H][C@@]12OCCN(C(=O)c3ccoc3C)[C@@]1([H])CC[C@H]2OCc1cccnc1	-16.67	5.318	1.915
Cc1cccc(C(C(=O)NCCc2nc(C)cc(=O)[nH]2)N(C)C)c1 (centres undefined)	-41.07	18.9	23.85
Cc1nc(CN2CCCC(NCc3ccc(Cl)s3)C2)no1 (centres undefined)	-4.21	23.41	-18.2
CCOc1ccc(C(=O)N2CCCS2(=O)=O)cc1OC	-5.572	2.38	2.84
O=C(CSCC1CC1)N1CCCC2(CCC(=O)N(CC3CC3)C2)C1 (centres undefined)	-3.163	19.02	7.174
O=S(=O)(Cc1ccccc1)NCc1ccco1	-6.328	6.225	1.803
CCOc1ccc(NCC(=O)NCC(=O)N2CCCC2)c(C(F)(F)F)c1	14.39	13.04	10.78
Cc1csc(N2CCN(C(=O)C3(C#N)CCCC3)CC2)n1	9.371	10.78	13.43
Cc1noc(C)c1CC(=O)NCC(C)N1CCOCC1 (centres undefined)	-9.438	15.96	-8.011
Cc1cc(C)n(CCC(=O)N2CCC(c3nc(C(C)C)no3)CC2)n1	5.468	0.2536	6.667
N#Cc1ccc(N2CCCC2Cn2cccn2)nc1 (centres undefined)	-9.927	24.6	-13.8
c1csc(CCNC2CCc3ncnn3C2)c1 (centres undefined)	-8.152	-25.65	-3.071
O=C(NC1CCCCC1)[C@H]1CNC[C@@H](COc2cccnc2)C1	17.63	2.297	1.328
COCc1nccc(C2CCCN(Cc3ccccc3C#N)C2)n1 (centres undefined)	3.831	1.773	1.444
CCc1cccc(NS(=O)(=O)c2cc3c(c(C(=O)O)c2)OCCO3)c1	22.74	-7.126	6.355
COc1ccnc(N(C)Cc2csc(C)n2)n1	-68.31	14.29	2.378
CCNc1ncc(C(=O)Nc2nnc(N3CCCCC3)[nH]2)s1	0.4471	23.53	13.38
Cc1nc(CN2CCCC(c3nccs3)C2)cs1 (centres undefined)	9.694	21.45	-19.39
CN(Cc1ccccc1)C(=O)CCS(=O)(=O)c1ccc2c(c1)OCCO2	-64.46	18.98	2.915
CNC(=O)Cc1ccccc1NC(=O)NCc1ccc(SC)cc1	-71.27	-20.45	5.084
Cc1nc2n(n1)CC(NCCc1cccs1)CC2 (centres undefined)	-43.07	23.79	1.89
Cc1nn(C)c(N(C)C)c1CNCCC(=O)NC1CCCCC1	-18.44	-8.64	-10.6
COc1cccc(-c2noc(-c3ccc(NCCCO)nc3)n2)c1OC	19.38	59.5	5.792
COCCn1nc(C(=O)N2CCN(C)CC2C)ccc1=O (centres undefined)	2.768	4.243	-5.498
Cc1[nH]c2c(F)cccc2c1CC(=O)NCc1csc(N(C)C)n1	-18.23	-56.79	-8.029
CC(=O)c1cccc(S(=O)(=O)N2CSCC2C(=O)NCC(F)(F)F)c1 (centres undefined)	33.38	22.29	0.1687
COc1cnc(C2(O)CCN(C(=O)c3scnc3C)CC2)c(OC)n1	-28.06	4.215 & -12.95	10.2
COCCCC1(CO)CCCN(C(=O)c2cnc3c(c2)CCCC3)C1 (centres undefined)	-66.48	18.81	-9.186
Cc1c(NC(=O)NC2CN3CCC2CC3)cccc1C(=O)N1CCCC1 (centres undefined)	-15.24	-66.5	1.558
CCc1nc(CC(=O)N2CCCCC2Cn2cccn2)cs1 (centres undefined)	-5.154	-3.745	1.186
CCn1cc(CN2CCCN(C(=O)c3ccco3)CC2)cn1	-	30.34	-0.03304